The entries are a selection whose mix differs from that of the whole data set.
compound: COC(=O)C#Cc1ccccc1 [methyl 3-phenylpropiolate]; experiment: log2 ratio of iodoacetamide-alkyne labeling of the cysteine site, DMSO over compound (competition); higher = stronger covalent engagement of the cysteine by the compound, active = 1 or more; details: 500 µM; treatment time 1 h; system: HEK293T cell lysate
Summary of the method: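 HEK293T lysate (2 mg/mL) was treated with DMSO or electrophile (500 µM, 1 h, ambient temperature), then iodoacetamide alkyne (1 h), clicked to sCIP-TMT reagents, pooled, trypsin-digested overnight at 37 °C, streptavidin-enriched and acid-eluted. Peptides were run on Orbitrap Eclipse LC-MS/MS with FAIMS and quantified in FragPipe. The log2 competition ratio per cysteine is mean control-channel over mean compound-channel reporter intensity. Duplicate channels and three replicates were used, and cysteines quantified in only one replicate were excluded.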

Amino acid sequences for entries named in this document (tags omitted). A change or cut given only in a name is not applied to a line headed by its entry.
UniProt Q14980: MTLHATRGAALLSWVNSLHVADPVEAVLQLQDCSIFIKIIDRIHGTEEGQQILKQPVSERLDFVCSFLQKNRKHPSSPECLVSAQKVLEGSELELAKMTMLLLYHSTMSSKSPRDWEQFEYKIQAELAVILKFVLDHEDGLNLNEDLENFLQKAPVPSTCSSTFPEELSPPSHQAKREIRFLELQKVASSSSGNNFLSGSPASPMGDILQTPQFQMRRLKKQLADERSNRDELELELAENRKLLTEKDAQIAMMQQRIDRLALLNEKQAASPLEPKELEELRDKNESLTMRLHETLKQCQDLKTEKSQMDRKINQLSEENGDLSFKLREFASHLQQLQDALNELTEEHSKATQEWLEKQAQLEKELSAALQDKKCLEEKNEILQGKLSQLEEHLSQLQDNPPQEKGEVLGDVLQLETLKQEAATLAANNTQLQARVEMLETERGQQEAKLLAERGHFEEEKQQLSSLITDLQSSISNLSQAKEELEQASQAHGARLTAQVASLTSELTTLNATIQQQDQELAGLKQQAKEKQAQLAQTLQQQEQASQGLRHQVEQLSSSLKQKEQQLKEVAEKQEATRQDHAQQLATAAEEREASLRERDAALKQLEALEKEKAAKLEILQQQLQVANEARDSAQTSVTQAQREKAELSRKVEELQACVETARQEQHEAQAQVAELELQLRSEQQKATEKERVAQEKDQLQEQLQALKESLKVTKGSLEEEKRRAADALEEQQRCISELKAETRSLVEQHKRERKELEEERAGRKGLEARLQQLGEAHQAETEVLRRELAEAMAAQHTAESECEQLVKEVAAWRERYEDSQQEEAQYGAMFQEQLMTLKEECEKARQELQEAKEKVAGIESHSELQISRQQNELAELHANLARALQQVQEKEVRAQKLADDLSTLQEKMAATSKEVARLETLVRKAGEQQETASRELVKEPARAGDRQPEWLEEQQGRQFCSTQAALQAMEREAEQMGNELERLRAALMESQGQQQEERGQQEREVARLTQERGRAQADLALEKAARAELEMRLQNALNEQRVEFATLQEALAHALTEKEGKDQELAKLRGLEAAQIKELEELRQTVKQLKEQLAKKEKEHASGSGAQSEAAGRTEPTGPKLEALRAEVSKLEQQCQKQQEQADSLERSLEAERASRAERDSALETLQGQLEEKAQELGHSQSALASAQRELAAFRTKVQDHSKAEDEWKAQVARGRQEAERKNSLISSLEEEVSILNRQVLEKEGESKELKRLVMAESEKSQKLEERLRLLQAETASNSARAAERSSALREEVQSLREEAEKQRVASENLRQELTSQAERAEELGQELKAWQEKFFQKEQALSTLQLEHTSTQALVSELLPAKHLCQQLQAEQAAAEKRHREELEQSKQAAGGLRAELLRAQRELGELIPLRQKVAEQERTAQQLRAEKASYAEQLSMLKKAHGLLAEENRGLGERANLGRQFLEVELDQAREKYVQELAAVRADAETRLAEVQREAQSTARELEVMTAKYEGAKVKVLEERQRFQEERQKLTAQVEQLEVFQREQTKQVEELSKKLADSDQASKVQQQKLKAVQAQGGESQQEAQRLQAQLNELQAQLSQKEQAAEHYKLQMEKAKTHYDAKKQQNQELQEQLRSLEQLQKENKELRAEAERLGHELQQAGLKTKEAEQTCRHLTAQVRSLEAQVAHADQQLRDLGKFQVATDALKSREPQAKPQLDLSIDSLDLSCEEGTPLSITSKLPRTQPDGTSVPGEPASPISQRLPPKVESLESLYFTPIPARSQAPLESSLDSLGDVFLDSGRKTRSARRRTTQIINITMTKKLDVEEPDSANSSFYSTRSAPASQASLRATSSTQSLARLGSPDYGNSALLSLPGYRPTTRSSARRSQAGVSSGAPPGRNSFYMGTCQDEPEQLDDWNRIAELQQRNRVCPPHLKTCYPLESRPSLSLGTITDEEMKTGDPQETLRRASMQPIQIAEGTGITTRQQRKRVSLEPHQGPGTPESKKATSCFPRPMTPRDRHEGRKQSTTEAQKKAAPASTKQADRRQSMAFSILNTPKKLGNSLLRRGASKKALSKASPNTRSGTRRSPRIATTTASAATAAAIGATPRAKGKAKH
UniProt Q14694, whole entry, looked up: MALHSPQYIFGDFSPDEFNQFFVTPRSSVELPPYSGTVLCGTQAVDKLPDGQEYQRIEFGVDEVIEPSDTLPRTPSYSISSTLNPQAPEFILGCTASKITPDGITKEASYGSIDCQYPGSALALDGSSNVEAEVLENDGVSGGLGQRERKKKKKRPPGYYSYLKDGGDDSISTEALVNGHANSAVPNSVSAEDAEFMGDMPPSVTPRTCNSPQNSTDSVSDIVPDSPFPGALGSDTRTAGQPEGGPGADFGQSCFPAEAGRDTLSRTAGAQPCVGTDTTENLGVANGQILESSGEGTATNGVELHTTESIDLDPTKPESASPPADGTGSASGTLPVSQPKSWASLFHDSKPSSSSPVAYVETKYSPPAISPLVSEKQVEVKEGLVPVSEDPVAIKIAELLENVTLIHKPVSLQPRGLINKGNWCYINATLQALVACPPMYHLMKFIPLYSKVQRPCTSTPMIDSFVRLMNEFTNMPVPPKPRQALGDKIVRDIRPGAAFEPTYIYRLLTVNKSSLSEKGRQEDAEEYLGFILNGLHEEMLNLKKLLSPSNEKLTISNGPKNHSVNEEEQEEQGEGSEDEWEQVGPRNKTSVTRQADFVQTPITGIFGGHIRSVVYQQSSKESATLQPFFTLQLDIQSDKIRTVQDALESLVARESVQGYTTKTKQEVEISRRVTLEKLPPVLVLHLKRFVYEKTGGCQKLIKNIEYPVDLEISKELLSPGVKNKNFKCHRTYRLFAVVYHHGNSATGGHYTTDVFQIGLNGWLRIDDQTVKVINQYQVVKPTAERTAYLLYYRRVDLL
UniProt Q14103: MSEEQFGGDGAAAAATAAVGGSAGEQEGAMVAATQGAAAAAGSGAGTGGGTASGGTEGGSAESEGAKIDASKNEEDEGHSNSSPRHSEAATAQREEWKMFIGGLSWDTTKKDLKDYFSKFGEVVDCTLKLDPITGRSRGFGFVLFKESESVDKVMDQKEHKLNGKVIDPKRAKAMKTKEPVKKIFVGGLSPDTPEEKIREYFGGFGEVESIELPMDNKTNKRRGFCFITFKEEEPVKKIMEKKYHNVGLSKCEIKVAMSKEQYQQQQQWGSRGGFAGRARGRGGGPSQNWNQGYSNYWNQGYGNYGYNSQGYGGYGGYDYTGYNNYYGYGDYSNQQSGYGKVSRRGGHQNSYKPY
UniProt Q13905: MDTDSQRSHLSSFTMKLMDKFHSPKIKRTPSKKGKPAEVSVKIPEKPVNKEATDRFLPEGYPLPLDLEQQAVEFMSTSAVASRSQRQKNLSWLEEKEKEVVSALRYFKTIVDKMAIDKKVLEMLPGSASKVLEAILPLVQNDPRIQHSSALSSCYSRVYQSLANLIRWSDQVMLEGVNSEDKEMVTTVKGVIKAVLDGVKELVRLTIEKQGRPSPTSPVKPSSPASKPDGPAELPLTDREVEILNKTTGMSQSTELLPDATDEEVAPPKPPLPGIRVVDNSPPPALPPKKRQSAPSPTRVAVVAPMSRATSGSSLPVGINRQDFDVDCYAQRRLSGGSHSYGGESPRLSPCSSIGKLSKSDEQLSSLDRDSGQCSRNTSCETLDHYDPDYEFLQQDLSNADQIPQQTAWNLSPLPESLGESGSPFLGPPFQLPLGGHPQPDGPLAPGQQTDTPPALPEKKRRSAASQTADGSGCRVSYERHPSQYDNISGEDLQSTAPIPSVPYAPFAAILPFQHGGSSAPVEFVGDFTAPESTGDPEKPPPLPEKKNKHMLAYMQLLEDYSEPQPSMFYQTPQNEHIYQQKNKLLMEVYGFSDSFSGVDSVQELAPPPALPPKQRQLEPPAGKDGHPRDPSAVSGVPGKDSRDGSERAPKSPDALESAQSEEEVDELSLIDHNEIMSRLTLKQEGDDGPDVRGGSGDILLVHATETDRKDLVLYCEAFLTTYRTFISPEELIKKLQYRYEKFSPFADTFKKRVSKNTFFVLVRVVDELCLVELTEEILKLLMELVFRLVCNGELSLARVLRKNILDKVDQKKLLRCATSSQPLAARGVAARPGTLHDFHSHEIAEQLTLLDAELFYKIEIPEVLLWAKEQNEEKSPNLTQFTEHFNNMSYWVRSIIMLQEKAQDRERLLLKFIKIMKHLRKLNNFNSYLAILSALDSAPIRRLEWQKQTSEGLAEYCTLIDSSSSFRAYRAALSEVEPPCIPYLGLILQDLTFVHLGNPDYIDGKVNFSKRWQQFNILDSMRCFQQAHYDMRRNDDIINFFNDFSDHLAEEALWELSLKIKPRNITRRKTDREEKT
UniProt Q13642: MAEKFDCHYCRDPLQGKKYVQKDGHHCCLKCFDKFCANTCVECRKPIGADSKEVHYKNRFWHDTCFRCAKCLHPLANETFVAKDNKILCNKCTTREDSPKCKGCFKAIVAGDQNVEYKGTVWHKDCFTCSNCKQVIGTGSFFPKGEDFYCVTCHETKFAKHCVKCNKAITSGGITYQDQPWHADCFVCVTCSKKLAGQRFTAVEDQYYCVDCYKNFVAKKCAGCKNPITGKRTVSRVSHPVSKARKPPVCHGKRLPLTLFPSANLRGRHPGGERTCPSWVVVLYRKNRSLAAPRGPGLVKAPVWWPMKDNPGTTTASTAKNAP
UniProt Q13541: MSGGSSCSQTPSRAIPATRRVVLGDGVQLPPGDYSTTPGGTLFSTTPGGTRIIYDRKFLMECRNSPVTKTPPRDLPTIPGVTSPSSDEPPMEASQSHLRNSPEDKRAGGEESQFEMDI
UniProt Q14012: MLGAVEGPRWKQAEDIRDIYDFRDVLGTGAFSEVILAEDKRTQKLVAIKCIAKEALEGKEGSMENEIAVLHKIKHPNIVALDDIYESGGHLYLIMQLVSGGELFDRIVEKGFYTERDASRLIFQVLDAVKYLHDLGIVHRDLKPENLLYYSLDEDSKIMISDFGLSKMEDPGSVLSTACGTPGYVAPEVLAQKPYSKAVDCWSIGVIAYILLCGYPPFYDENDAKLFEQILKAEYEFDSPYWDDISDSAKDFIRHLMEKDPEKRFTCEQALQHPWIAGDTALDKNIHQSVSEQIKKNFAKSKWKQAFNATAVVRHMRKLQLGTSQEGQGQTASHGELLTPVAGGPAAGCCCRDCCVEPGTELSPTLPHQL
UniProt Q14152, whole entry, looked up: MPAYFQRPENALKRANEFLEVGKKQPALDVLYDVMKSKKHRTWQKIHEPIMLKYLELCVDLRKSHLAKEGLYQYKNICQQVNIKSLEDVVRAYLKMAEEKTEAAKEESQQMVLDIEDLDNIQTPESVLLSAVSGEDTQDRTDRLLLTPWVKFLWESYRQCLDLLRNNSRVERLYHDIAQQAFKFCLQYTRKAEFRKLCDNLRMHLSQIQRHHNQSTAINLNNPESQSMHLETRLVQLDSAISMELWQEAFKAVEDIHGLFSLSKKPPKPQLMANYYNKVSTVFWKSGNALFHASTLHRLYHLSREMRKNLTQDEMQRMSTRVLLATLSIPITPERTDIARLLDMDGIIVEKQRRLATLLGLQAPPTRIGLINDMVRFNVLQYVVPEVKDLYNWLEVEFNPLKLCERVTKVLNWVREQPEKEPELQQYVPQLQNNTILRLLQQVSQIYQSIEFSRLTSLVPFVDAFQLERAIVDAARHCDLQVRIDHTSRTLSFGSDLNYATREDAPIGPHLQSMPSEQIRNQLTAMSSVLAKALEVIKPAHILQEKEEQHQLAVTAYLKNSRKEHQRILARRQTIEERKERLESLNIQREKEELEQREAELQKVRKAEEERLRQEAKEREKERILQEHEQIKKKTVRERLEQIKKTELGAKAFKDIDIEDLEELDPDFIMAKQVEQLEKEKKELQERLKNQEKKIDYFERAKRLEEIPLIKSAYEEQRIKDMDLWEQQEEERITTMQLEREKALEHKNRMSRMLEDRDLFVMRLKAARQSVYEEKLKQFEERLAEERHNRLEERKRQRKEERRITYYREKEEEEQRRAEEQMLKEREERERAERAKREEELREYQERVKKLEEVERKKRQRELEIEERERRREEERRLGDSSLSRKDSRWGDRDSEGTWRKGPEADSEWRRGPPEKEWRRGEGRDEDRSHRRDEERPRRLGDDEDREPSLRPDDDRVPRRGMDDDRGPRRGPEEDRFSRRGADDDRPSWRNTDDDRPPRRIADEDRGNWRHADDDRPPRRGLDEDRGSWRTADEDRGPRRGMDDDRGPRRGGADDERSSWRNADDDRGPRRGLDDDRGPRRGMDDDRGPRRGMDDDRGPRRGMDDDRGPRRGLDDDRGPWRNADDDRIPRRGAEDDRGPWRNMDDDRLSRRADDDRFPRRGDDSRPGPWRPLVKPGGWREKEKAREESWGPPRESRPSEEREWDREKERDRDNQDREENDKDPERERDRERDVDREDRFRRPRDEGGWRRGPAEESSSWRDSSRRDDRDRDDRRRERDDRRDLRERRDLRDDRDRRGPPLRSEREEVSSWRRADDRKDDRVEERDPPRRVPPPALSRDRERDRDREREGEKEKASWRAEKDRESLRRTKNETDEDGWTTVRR

log2 ratio of iodoacetamide-alkyne labeling, active:
NUMA1 C961 (UniProt Q14980) 1.55

log2 ratio of iodoacetamide-alkyne labeling, inactive:
PRPF4B C962 (UniProt Q13523) 0.222, FLNC C1448 (UniProt Q14315) 0.432, USP10 C254 (UniProt Q14694) 0.49, HNRNPD C126 (UniProt Q14103) 0.291, DYNC1H1 C2712 (UniProt Q14204) 0.254, UniProt Q14241_C339 0.0503, BOP1 C108 (UniProt Q14137) 0.697, NUMA1 C1907 (UniProt Q14980) 0.551, RAPGEF1 C817 (UniProt Q13905) 0.406, FHL1 C65 (UniProt Q13642) -0.131, EIF4EBP1 C7 (UniProt Q13541) 0.716, KPNB1 C817 (UniProt Q14974) 0.76, BMS1 C101 (UniProt Q14692) 0.0847, HLTF C442 (UniProt Q14527) 0.431, GNL2 C336 (UniProt Q13823) 0.66, BMS1 C317 (UniProt Q14692) 0.0642, UniProt Q14197_C82 0.205, UBE4A C79 (UniProt Q14139) 0.178, NCAPH C402 (UniProt Q15003) 0.622, UniProt Q14004_C1017 0.529, SPTAN1 C1622 (UniProt Q13813) -0.0196, RBM39 C303 (UniProt Q14498) 0.171, TTLL12 C528 (UniProt Q14166) -0.155, SHROOM2 C836 (UniProt Q13796) 0.986, CAMK1 C179 (UniProt Q14012) 0.375, CAMK2G C453 (UniProt Q13555) -0.122, UBE4A C989 (UniProt Q14139) 0.466, FHL1 C153 (UniProt Q13642) 0.177, MCM6 C242 (UniProt Q14566) 0.192, PUM1 C234 (UniProt Q14671) 0.334, SPTAN1 C2233 (UniProt Q13813) 0.333, FHL1 C188 (UniProt Q13642) 0.313, EIF3A C58 (UniProt Q14152) 0.0702, GAMT C220 (UniProt Q14353) 0.215, HLTF C812 (UniProt Q14527) 0.0664, NPAT C551 (UniProt Q14207) 0.356

— the supplement of paper PMC11006884
